In patent US20220072095A1, “METHODS AND COMPOSITIONS FOR TREATING SKIN DISEASES” (VANDERBILT UNIVERSITY, priority 2018, published 2022):
Not every detail of the peptide structures is certain; ends, links or a residue may be inferred. Bridge positions count the residues as written; N and C are the ends. Peptide text beside a SMILES is read from it.

Experiments:
[1] = system: C57BL/6J mice challenged with Phorbol Myristoyl Acetate (PMA); test: Twice daily topical NTM on shaved backs of mice challenged with 4 daily doses of PMA; H&E staining of skin biopsies; format: in vivo; conditions: low dose 30 μg/20 μl and high dose 100 μg/20 μl per spot every 12 h, dose-dependent, 3 mice/group
[2] = system: C57BL/6J-129 mice challenged with PMA; test: Single PMA challenge to ears of mice treated with topical NTM; ear thickness and H&E staining of ear punch biopsies; format: in vivo

CSCC[C@@H]1NC(=O)[C@H](CC(C)C)NC(=O)[C@H](CCCCN)NC(=O)[C@H](CCC(N)=O)NC(=O)[C@H](CCCNC(=N)N)NC(=O)[C@H](CCCCN)NC(=O)[C@H](CCCNC(=N)N)NC(=O)[C@H](CCC(N)=O)NC(=O)[C@H](C(C)C)NC(=O)[C@@H](NC(=O)[C@@H]2CCCN2C(=O)[C@H](C)NC(=O)[C@H](CC(C)C)NC(=O)[C@H](CC(C)C)NC(=O)[C@H](C)NC(=O)[C@H](CC(C)C)NC(=O)[C@H](CC(C)C)NC(=O)[C@@H](NC(=O)[C@H](C)NC(=O)[C@@H]2CCCN2C(=O)[C@H](CC(C)C)NC(=O)[C@H](CC(C)C)NC(=O)[C@H](C)NC(=O)[C@@H](NC(=O)[C@H](C)NC(=O)[C@H](C)N)C(C)C)C(C)C)CSSC[C@@H](C(=O)O)NC(=O)[C@@H]2CCCN2C1=O [cSN50.1] (H-AAVALLPAVLLALLAPCVQRKRQKLMPC-OH; disulfide 17-28; N-terminus and C-terminus assumed)
inflammatory cell infiltration in response to PMA (H&E staining of skin biopsies) [1]: reduced
swelling and cellular infiltration induced by PMA (H&E staining of ear punch biopsies) ([2]; 8 h post-challenge, 3 mice/group): reduced
redness and swelling of ears induced by PMA ([2]; after 6 h, inset pictures of ears): absent
ear swelling (ear thickness) due to increased microvascular permeability induced by PMA ([2]; topical NTM 100 μg/20 μl per ear, right ear, 3 mice/group): attenuated
